One experiment has as its target T1, Mos10-6His (yeast) (UniProt Q03390).
T1 sequence: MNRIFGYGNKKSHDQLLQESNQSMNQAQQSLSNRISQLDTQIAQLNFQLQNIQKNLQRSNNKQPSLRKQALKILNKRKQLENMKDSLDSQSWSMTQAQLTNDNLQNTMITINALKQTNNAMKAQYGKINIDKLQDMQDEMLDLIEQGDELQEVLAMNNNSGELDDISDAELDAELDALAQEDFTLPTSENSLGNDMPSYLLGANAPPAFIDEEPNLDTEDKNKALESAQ
As to the kind of experiment: affinity purification with mass spectrometry.

In the next experiment the target is T2, Mos10-sfGFP (yeast) (UniProt Q03390).
T2 sequence: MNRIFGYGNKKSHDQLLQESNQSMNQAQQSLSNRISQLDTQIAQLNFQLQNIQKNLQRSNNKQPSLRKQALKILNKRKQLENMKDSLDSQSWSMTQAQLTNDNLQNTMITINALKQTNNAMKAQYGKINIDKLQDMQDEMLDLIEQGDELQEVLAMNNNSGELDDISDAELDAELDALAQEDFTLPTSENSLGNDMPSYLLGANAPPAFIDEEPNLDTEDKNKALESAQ
The experiment can be described thus: affinity purification with mass spectrometry.

No constants are given. Whether binding was seen depends on the method and setting. Binding seen in cells or lysates may run through a third protein. These calls come from enrichment with a bait or labelling near it, and not all partners need be listed. For some of these results: A no says only that the protein was not detected with the bait. Tags and fused reporters may be left off the sequences shown.

B1: Bag7 (protein, UniProt Q12128 1-409)
chain: MFNMNLLSTPSSEEGSPQNRSSSMSSVEGKKDRDTFTNLQNEFDGKVFGVSLEESLKVAQEEVIIQKSTNEIGSIPVVIAKSGKYLKENALDTTGIFRIAGSNKRVRELQAVFSKPPDYGRKFEGWCDFNVHDIATLLKRYLNSLSEPLVPLALYDIFRNPILENPKINEHKEQIIKDYEDIYMLLPQQNRHLILYLAALLNLFARNEKKNLMSASNLAAIVQPSLLSHPKDEMCPKEYEASRTVIEFLILHASDIIPNTEKANKDTMPHAGTVAKFNNITVPEMAIDSDEEDFVHPSIDDHMLPRSRALSDSNNFTIHHHHHHHHALFPSPIDFDNNGLSVPRSFKGRTLSAESLSPRLSKLLGNVGNSSNTGIKDPTERVPRGEHKTKHKQRQSWLRRLTSPSRTQP
Regarding B1, the binding entry with Mos10-6His (yeast) is “no binding”.

B2: Ykr075c (protein, UniProt P36155 1-307)
chain: MTSLDDTIISYQNIMLLDNMTNYNKPAIDYFHHEFNDASLEISASWTLLLKMRKHKLLRLPSCSSEDVLDYNMYLVRLHHCLWRRWSINHYGLQNSKSNPLSINWNKETDVTVLYGPDLTNIDSNENEISPVQNQIDQKQTKNLKSALKKNTECWVTEEVDEINASIESNDNALVKLEDISCPSSVDSHTSSIFDQHSTCTKISSIDEDSEDLMNEKKEQFPRKLKFNQAVMKREIDSKGTIRESLININDIQHSRHHRRHHRRHHHHHHQNSSHSDETIKEAHYEFSNYTFGTMEEDIFYRNQVVF
Take B2: the binding entry with Mos10-6His (yeast) is reported as “no binding”.

B3: Did2 (protein, UniProt P69771 1-204)
chain: MSRNSAAGLENTLFQLKFTSKQLQKQANKASKEEKQETNKLKRALNENEDISRIYASNAIRKKNERLQLLKLASRVDSVASRVQTAVTMRQVSASMGQVCKGMDKALQNMNLQQITMIMDKFEQQFEDLDTSVNVYEDMGVNSDAMLVDNDKVDELMSKVADENGMELKQSAKLDNVPEIKAKEVNVDDEKEDKLAQRLRALRG
For B3, the binding result in the experiment with Mos10-6His (yeast) and with Mos10-sfGFP (yeast) was “binds” in each case.

Source of the values: doi:10.1101/2022.01.03.474785.
